Holding throughout (assay): co-IP; lysate of T cells of healthy controls; lysis buffer Tris-HCl 50 mM, NaCl 120 mM, IGEPAL 0.5%, NaF 100 mM, NaVO3 2 mM; primary antibody overnight at 4 °C, Protein A/G Plus Agarose; Western blot with densitometry
In general terms: In western blotting, separated proteins are transferred to a membrane and probed.

By UniProt entry, the sequences of proteins in these tests, tags left out. Residues count along the entry.
UniProt Q16288, residues 32-839: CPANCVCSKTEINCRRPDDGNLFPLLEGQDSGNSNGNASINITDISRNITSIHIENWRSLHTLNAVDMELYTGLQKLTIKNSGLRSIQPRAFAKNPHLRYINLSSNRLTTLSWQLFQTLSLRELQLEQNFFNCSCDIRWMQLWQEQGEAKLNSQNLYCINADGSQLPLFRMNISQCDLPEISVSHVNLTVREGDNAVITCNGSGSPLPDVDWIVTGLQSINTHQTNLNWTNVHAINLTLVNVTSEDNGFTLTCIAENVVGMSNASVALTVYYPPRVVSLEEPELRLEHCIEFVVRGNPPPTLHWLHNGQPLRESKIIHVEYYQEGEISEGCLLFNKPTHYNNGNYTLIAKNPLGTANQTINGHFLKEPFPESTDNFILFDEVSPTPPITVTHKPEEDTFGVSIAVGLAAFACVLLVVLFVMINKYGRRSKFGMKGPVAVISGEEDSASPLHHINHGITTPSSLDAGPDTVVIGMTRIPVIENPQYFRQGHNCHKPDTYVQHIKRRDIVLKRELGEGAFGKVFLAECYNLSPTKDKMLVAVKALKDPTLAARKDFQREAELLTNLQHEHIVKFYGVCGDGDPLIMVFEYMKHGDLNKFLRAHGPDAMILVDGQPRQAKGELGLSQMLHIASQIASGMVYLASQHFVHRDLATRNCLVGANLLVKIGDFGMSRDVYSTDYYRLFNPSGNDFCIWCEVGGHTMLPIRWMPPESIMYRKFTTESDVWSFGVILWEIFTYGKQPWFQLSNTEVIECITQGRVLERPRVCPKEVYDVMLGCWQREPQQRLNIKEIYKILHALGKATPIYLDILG
UniProt P23975: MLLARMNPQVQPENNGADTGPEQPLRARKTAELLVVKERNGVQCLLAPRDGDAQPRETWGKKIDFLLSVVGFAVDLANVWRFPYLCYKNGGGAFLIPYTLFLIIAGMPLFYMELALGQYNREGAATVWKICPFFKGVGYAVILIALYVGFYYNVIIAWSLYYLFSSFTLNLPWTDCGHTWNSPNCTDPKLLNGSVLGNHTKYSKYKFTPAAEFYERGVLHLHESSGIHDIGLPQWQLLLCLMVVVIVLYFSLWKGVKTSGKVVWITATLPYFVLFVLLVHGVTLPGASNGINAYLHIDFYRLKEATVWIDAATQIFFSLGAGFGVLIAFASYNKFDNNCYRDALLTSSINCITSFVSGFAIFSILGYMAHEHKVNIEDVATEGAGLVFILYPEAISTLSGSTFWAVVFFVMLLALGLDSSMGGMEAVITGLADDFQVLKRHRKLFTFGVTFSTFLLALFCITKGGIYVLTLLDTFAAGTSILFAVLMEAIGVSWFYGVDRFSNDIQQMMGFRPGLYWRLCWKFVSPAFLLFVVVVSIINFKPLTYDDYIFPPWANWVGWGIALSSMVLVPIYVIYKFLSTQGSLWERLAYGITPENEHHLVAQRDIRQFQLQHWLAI

Assay [1] deals with tropomyosin receptor kinase C (TrkC) (human (endogenous in T cells of peripheral blood)) (UniProt Q16288).
Assay [2] concerns the target T1, neurotrophin-3 (NT-3) (human (endogenous in T cells of peripheral blood)) (UniProt P20783).
T1 sequence: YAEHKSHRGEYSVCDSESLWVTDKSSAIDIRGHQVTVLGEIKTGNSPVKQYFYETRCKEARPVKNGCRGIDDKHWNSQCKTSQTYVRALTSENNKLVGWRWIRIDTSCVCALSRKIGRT

Assay [3] concerns the target norepinephrine transporter (NET) (human (endogenous in T cells of peripheral blood)) (UniProt P23975).

These are yes or no findings as the source states them, for the method shown. In cells and extracts the contact can be indirect. Some binding calls cover weakened binding; strength is not graded here.

As for “norepinephrine transporter (NET) (from UniProt P23975 1-617)”, the binding entry in assay [1] and in assay [2] was “binds” throughout. For the molecule “tropomyosin receptor kinase C (TrkC) (from UniProt Q16288 32-839)”, the binding result in assay [3] is recorded as “binds”.

B1: neurotrophin-3 (NT-3) (ligand, UniProt P20783 139-257)
chain: T1 sequence
Take B1: in assay [3], the binding entry is “binds”.

The record behind these values is publication PMC8395201.
